Results are given in words; binding and its absence hold for the method and conditions named. In cells and extracts the contact can be indirect.
Target: T1, BCL2L10 (human (endogenous in Hep3B)) (UniProt Q9HD36)
T1 sequence: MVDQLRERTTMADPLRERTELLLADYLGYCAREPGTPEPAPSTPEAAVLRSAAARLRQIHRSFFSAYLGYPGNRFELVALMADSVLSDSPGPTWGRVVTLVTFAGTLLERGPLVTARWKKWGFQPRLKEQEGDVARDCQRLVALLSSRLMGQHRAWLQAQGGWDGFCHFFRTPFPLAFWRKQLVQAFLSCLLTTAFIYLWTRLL
Assay: co-IP; HCC cells transfected with wild-type or deletion constructs (Flag-BECN1ΔBH3, Myc-BCL2L10ΔBH1, Flag-BECN1ΔECD); EBC lysis buffer; anti-flag, anti-Myc or anti-BECN1 antibody with protein A/G beads; Western blot

Amino acid sequences for entries named in this document (tags omitted). A change or cut given only in a name is not applied to a line headed by its entry.
UniProt Q14457: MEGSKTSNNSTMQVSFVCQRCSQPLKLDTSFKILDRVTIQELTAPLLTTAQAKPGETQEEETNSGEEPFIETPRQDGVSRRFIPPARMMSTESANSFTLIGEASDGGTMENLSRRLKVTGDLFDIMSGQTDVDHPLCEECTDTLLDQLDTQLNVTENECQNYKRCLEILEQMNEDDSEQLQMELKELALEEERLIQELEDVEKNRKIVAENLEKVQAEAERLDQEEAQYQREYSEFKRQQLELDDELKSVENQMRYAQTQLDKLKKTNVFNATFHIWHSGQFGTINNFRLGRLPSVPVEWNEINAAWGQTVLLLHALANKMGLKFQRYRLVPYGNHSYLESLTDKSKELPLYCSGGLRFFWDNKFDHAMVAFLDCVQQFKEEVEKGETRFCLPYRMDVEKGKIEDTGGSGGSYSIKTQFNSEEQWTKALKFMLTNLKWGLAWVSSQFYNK

binding: no binding
Substance: Flag-BECN1ΔBH3 (from UniProt Q14457)

— paper PMC6366968
